{
  "source": "paper doi:10.1101/2022.11.08.515568",
  "biological_target": "T1, FliW-T25 (Clostridioides difficile) (UniProt Q18CX4)",
  "T1 sequence": "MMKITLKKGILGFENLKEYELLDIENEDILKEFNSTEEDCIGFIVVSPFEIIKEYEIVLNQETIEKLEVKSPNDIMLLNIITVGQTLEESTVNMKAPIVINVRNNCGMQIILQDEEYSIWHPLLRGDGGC",
  "experiment": "two-hybrid",
  "note": "These are yes or no findings as the source states them, for the method shown. Binding calls can cover weak binding; strength is not graded here.",
  "data": [
    {"substance": "FliC-T18 (Clostridioides difficile)", "values": [
      {"measurement": "binding", "result": "binds"}
    ]},
    {"substance": "TcdR-T18 (Clostridioides difficile)", "values": [
      {"measurement": "binding", "result": "binds"}
    ]}
  ]
}
